{"source": "PubChem BioAssay AID624404", "about": "(Broad Institute, 2012)", "note": "In all, about 1,800 compounds went through this assay and about 710 (39%) were called active. Inconclusive means that the source gave no clear call. Such entries were picked first, then a sample of the others.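 How the source made its calls: active means luciferase signal rise whose fitted curve crosses a set activity limit at or below the top valid tested dose; inconclusive means flat fit with 30 to 70% rise, or poor fit; inactive means signal falling, flat within 30%, or crossing above top dose.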", "data": [{"assay": "luciferase activators in glycosylation-insensitive reporter cells, dose response, counter-screen for N-linked glycosylation inhibitor project, D54 LucT cells, luminescence, cherry pick (AID 624404);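 further: 0% = median neutral control signal and 100% = twice that signal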", "details": "D54 LucT luciferase reporter counterscreen, 24 h; at 19.5 µM (top of the series) unless noted", "values": [{"compound": "O=C(NC(=S)Nc1cccc(S(=O)(=O)NC2=NCCC2)c1)c1cc(-c2ccco2)nc2ccccc12", "activity increase (luciferase signal)": "inconclusive: 43% [at 5 µM]"}, {"compound": "COC(=O)c1ccccc1NC(=O)Cn1c(-c2nonc2N)nc2ccccc21", "activity increase (luciferase signal)": "inconclusive: 6.78%"}, {"compound": "CC1CC(C)CN(C(=O)/C=C/c2ccc([N+](=O)[O-])s2)C1", "note": "(stereo not given)", "activity increase (luciferase signal)": "inconclusive: 51.9%"}, {"compound": "COc1cccc(N2CCN(C(=O)c3ccc(CS(=O)c4ccc(C)cc4)o3)CC2)c1", "note": "(stereo not given)", "activity increase (luciferase signal)": "inconclusive: 60.5%"}, {"compound": "COc1ccc(C(=O)/C=C/c2ccc(OC3CSC3)cc2)cc1OC", "activity increase (luciferase signal)": "inconclusive: 29.6%"}, {"compound": "COc1ccc(NC(=O)c2cccc(Oc3ccccc3)c2)cn1", "activity increase (luciferase signal)": "inactive: 187%"}, {"compound": "O=C(NCC1CCCO1)c1cc(-c2ccc(F)cc2)no1", "note": "(stereo not given)", "activity increase (luciferase signal)": "inconclusive: 128%"}, {"compound": "O=C(Nc1cccc2ccccc12)c1ccc([N+](=O)[O-])o1", "activity increase (luciferase signal)": "inconclusive: 115%"}, {"compound": "COc1ccc(OC)c(S(=O)(=O)Nc2ccc3c(c2)n(C)c(=O)n3C)c1", "activity increase (luciferase signal)": "inconclusive: 37.1%"}, {"compound": "Cc1ccc(/C=N/NC(=O)c2cc(-c3cccnc3)nc3ccccc23)cc1", "activity increase (luciferase signal)": "inconclusive: 35.5%"}, {"compound": "CCn1c(SCC(=O)N/N=C/c2ccc(C)s2)nc2ccccc21", "activity increase (luciferase signal)": "inconclusive: 61.9%"}, {"compound": "CC(C)C(=O)Nc1ccc(C(=O)N/N=C/c2cc(Br)cc(Br)c2O)cc1", "activity increase (luciferase signal)": "inactive: 11.7%"}, {"compound": "Cc1cc(C)nc(SC2CC(=O)N(c3ccc(C)c(C)c3)C2=O)n1", "note": "(stereo not given)", "activity increase (luciferase signal)": "inconclusive: 27.6%"}, {"compound": "CC(C)COc1ccc(C(=O)OCC(=O)NCc2cccs2)cc1", "activity increase (luciferase signal)": "inconclusive: 61.9%"}, {"compound": "COc1ccc(/C=N/NC(=O)c2c(C)nc3ccc(Br)cn23)cc1OC", "activity increase (luciferase signal)": "inconclusive: 21.6%"}, {"compound": "COc1cccc(-c2cc(C(=O)Nc3cc(OC)c(OC)c(OC)c3)no2)c1", "activity increase (luciferase signal)": "inconclusive: 29.6%"}, {"compound": "CC(=O)c1cccc(NC(=O)CSc2ncc(C(=O)Nc3ccccc3)c(=O)n2C)c1", "activity increase (luciferase signal)": "inactive: -6.67%"}, {"compound": "CCn1c2ccccc2c2cc(NC(=O)COC(=O)c3cc(S(N)(=O)=O)c(Cl)cc3Cl)ccc21", "activity increase (luciferase signal)": "inconclusive: 74.9%"}, {"compound": "COc1cc(C2=NOC(C(=O)NCc3ccco3)C2)cc(OC)c1OC", "note": "(stereo not given)", "activity increase (luciferase signal)": "inconclusive: 14.8%"}, {"compound": "COc1cc(-c2noc(C)c2/C=C/c2ccc(OC(C)=O)cc2)cc(OC)c1OC", "activity increase (luciferase signal)": "inactive: 11.2%"}, {"compound": "CCOC(=O)/C(=C\\c1ccccc1)C(=O)c1cc(C(C)=O)c(Nc2ccccc2)s1", "activity increase (luciferase signal)": "inconclusive: 34.2%"}, {"compound": "COc1cc2nc(N(C)C)nc(N)c2cc1OC", "activity increase (luciferase signal)": "inconclusive: 37.6%"}, {"compound": "CC(=O)c1cccc(-c2ccnc3c2CC(C(=O)NCCc2ccccc2)O3)c1", "note": "(stereo not given)", "activity increase (luciferase signal)": "inconclusive: 38.3%"}, {"compound": "CC(NC(=O)c1cccc2ccccc12)c1ccc2c(c1)CCCC2", "note": "(stereo not given)", "activity increase (luciferase signal)": "inactive: 22.9%"}, {"compound": "CC(=O)Nc1cccc(-c2ccnc3c2CC(C(=O)Nc2ccc4c(c2)OCO4)O3)c1", "note": "(stereo not given)", "activity increase (luciferase signal)": "inconclusive: 53.8%"}, {"compound": "O=C(Nc1nc2ccccc2c(=O)s1)c1ccco1", "activity increase (luciferase signal)": "inactive: 5.88%"}, {"compound": "CC1(C(=O)NCc2ccco2)Cc2c(-c3ccc(C(N)=O)cc3)ccnc2O1", "note": "(stereo not given)", "activity increase (luciferase signal)": "inconclusive: 92.6%"}, {"compound": "Cc1c(C(=O)N/N=C/c2cccnc2)sc(N)c1C#N", "activity increase (luciferase signal)": "inconclusive: 60%"}, {"compound": "O=C(N/N=C\\c1ccc([N+](=O)[O-])o1)c1cncc(Br)c1", "activity increase (luciferase signal)": "inconclusive: 12.6%"}, {"compound": "COc1cc2c(C#N)c(N3CCc4ccccc4C3)nc(N)c2c(N)n1", "activity increase (luciferase signal)": "inconclusive: 24.1%"}, {"compound": "O=C(CC(NC(=O)c1ccccc1)c1ccccc1)Nc1ccc(F)c(F)c1", "note": "(stereo not given)", "activity increase (luciferase signal)": "inconclusive: -6.84%"}, {"compound": "COc1cc(-n2c(N)c(C(=O)NCc3ccco3)c3nc4ccccc4nc32)cc(OC)c1OC", "activity increase (luciferase signal)": "inconclusive: 78.5%"}, {"compound": "COc1cc(-c2nc3cnccn3c2Nc2ccc(C)cc2)ccc1O", "activity increase (luciferase signal)": "inconclusive: 27.6%"}, {"compound": "COC(=O)Nc1nc(-c2ccccc2)c(C(=O)c2ccc(Cl)cc2)s1", "activity increase (luciferase signal)": "inconclusive: 36.9%"}, {"compound": "CCOc1ccc(S(=O)(=O)NCc2ccccn2)cc1NC(=O)c1ccccc1F", "activity increase (luciferase signal)": "inconclusive: 6.33%"}, {"compound": "COc1ccc(OC)c(NS(=O)(=O)c2ccc(SC)cc2)c1", "activity increase (luciferase signal)": "inactive: 16.3%"}, {"compound": "CCOC(=O)c1[nH]c2ccc(F)cc2c1NC(=O)C(C)N1CCc2cc(OC)c(OC)cc2C1", "note": "(stereo not given)", "activity increase (luciferase signal)": "inactive: 17.3%"}, {"compound": "O=C(NCCC1=CCCCC1)C1CCC(CNc2nc(=S)[nH]c3ccccc23)CC1", "note": "(stereo not given)", "activity increase (luciferase signal)": "inactive: 31.7%"}, {"compound": "COc1ccc(N2CC(C(=O)Nc3cc(C(F)(F)F)ccc3N3CCCC3)CC2=O)c(OC)c1", "note": "(stereo not given)", "activity increase (luciferase signal)": "inactive: 11.6%"}, {"compound": "CCOC(=O)/C=C(\\C)Sc1cc(=O)oc2ccccc12", "activity increase (luciferase signal)": "inactive: 15.5%"}, {"compound": "COc1ccc(NC(=O)C2(C)Cc3c(-c4cccc(C(N)=O)c4)ccnc3O2)cn1", "note": "(stereo not given)", "activity increase (luciferase signal)": "inactive: 7.81%"}, {"compound": "COc1cccc2nc3c(C(=O)NCCN(C)C)cccc3cc12", "activity increase (luciferase signal)": "inactive: -3.74%"}, {"compound": "CN(C)S(=O)(=O)c1ccc(N2CCCC2)c(C(=O)Nc2ccccc2)c1", "activity increase (luciferase signal)": "inactive: 4.45%"}, {"compound": "c1ccc(CN2CCC(Nc3nc(-c4cccnc4)nc4ccccc34)CC2)cc1", "activity increase (luciferase signal)": "inactive: -28.2%"}, {"compound": "CCOc1ccccc1N1CCN(C(=O)c2cc3ccccc3cc2OC)CC1", "activity increase (luciferase signal)": "inconclusive: 68.9%"}, {"compound": "CC(=O)Nc1cccc(-c2ccnc3c2CC(C)(C(=O)NCCc2ccccc2)O3)c1", "note": "(stereo not given)", "activity increase (luciferase signal)": "inconclusive: 41.8%"}, {"compound": "CC(=O)Nc1cccc(-c2ccnc3c2CC(C(=O)NCCc2ccccc2)O3)c1", "note": "(stereo not given)", "activity increase (luciferase signal)": "inconclusive: 21.9%"}, {"compound": "Cc1[nH][nH]c(=O)c1C(c1ccc(-c2ccc(F)cc2)o1)c1c(C)[nH][nH]c1=O", "activity increase (luciferase signal)": "inactive: 31.7%"}, {"compound": "NC(=O)/C=C/C(=O)Nc1ccc(Cl)cc1", "activity increase (luciferase signal)": "inconclusive: 37.3%"}, {"compound": "O=C(NCc1ccc(OC(F)(F)F)cc1)C1CC(c2ccc(C(F)(F)F)cc2)=NO1", "note": "(stereo not given)", "activity increase (luciferase signal)": "inconclusive: 16.9%"}, {"compound": "CCOCCCNC(=O)c1cc2c(=O)n(CC)c3ccccc3c2s1", "activity increase (luciferase signal)": "inconclusive: 67.9%"}, {"compound": "COc1ccc(C(=O)/C=C/c2ccc(N(C)C)cc2)c(OC)c1", "activity increase (luciferase signal)": "inconclusive: 79.6%"}, {"compound": "CCn1c2ccccc2c2cc(NC(=O)c3cc(OC)c(OC)c(OC)c3)ccc21", "activity increase (luciferase signal)": "inactive: -0.943%"}, {"compound": "Cc1nnc2c(NC3CCCC3)nc3ccccc3n12", "activity increase (luciferase signal)": "inconclusive: 104%"}, {"compound": "CCOc1cc(/C=C/C(=O)c2ccc3c(c2)OCCO3)ccc1OCC(=O)N(C)C", "activity increase (luciferase signal)": "inactive: 31.7%"}]}]}
